Data published in publication PMC10907699.
Results are given in words; binding and its absence hold for the method and conditions named. Binding seen in cells or lysates may run through a third protein. Some results given as binding are weak or reduced against the parent protein; the word gives no strength. Where a sequence is shown, tags or fusion partners need not be part of it.

Target: T1, FLAG-M1-tagged mouse AGR2 (mouse) (UniProt O88312)
T1 sequence: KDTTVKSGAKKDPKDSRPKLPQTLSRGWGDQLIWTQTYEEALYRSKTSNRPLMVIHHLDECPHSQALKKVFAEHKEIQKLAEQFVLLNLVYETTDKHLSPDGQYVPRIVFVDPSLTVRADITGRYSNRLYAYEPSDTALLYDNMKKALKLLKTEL
Assay: co-IP; wild-type CHO-K1 cells over-expressing full-length IRE1β and FLAG-M1 AGR2; lysis with 20 mM NEM and 10 mM CaCl2; anti-FLAG-M1 affinity gel; eluates run reduced or non-reduced

binding: binds
B1: full-length mouse IRE1β (protein, UniProt Q9Z2E3 34-911)
chain: VRPESLLFVSTLDGSLHALNKQTGDLKWTVKDDPIIQGPMYVTEMAFLSDPADGSLYVLGTQKQQGLMKLPFTIPELVHASPCRSSDGVFYTGRKQDAWFVVDPESGETQMTLTTEGLSTPQLFIGRTQYTVSMHDLRTPALRWNTTYRRYSAPLLNGSPGKYMSHLTSCGMGLLLTVDPGSGIVLWTQDLGVPVTGIYTWHQDGLHQLPHLTLARDTLHFLVLRWGHIRLPASSYQDTATQFSSLDTQLLMTLYVGKEEAGFYVSKALVHAGVALVPRGLTLAPMDGPTTDEVTLQVSGEREGSPSTAVRYPSGSVALPSQWLLIGYHEPPPVLHTTMLRVHPIPGKVSAETRASEDLHAPPVFFELLNLRREDPELHPEEKASDSYPGLGSQDLLAATFTAILLGAWVLYLMRQQQQSPSAPAGPPDLSQDAQGQLSRDILQDQRRFQSPSEPAQPPHDPEAGQPTVVGKISFNPKDVLGRGAGGTFVFRGQFEGRAVAVKRLLRECFGLVRREVQLLQESDRHPNVLRYFCTEHGPQFHYIALELCQASLQEYVESPDLDRWGLEPTTVLQQMMSGLAHLHSLHIVHRDLKPANILMAGPDSQGQGRVVISDFGLCKKLPVGRCSFSLHSGIPGTEGWMAPELLQLPPDSPTSAVDIFSAGCVFYYVLSGGSHPFGESLYRQANILSGDPCLAQLQEETHDKVVALDLVRAMLSLLPQDRPSAGWVLAHPLFWSRAKELQFFQDVSDWLEKEPDQGPLVSALEAGSYKVVREDWHKHISAPLQADLKRFRSYKGTSVRDLLRAMRNKKHHYRELPAEVRQTLGQLPAGFIQYFTQRFPRLLLHTHRAMRTCASESLFLPYYPPALEARRPDATKS
